The target in this data set is T1, His-SUMO-TTF2-Δ1-100 (contains ATPase domain) del1-100 (Mus musculus) (UniProt Q5NC05).
T1 sequence (looked up): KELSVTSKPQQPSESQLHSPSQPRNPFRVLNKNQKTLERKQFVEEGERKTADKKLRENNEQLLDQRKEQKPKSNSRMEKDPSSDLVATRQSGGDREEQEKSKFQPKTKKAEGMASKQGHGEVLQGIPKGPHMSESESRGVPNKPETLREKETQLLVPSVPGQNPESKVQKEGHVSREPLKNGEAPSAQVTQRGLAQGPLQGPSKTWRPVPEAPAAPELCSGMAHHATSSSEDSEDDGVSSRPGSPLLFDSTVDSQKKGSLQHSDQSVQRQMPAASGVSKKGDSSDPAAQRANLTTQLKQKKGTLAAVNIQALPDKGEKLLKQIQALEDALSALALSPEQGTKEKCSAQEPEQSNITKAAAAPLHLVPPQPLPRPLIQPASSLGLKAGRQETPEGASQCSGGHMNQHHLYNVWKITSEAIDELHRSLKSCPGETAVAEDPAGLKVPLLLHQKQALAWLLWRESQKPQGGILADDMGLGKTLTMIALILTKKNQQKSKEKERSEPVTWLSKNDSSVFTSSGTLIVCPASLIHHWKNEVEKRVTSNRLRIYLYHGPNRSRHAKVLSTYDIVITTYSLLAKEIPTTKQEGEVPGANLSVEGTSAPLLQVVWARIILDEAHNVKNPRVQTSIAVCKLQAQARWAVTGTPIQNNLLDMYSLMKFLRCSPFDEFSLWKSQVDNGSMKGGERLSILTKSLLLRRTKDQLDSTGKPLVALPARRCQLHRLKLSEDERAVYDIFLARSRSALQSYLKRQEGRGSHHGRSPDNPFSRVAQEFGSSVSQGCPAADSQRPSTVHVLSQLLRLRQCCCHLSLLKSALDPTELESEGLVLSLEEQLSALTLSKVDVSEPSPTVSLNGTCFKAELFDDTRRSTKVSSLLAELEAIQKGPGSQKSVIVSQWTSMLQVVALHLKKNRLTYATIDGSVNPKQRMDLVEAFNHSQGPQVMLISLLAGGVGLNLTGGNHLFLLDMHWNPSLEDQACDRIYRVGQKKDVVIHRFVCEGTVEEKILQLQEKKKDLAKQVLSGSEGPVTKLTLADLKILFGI
Nature of the data set: EMSA. To be noted: 10 nM DNA; residues 101-1138. In general terms: Mobility shift assays separate free from complexed probe on a gel.

Construct, isoform or probe ends are uncertain for at least one entry. At least one verdict was read from the data and is not stated in words by the source. Tags and fusion partners may be left off the protein sequences shown.

As for “CAGTGCCAAGCTTGCATGCCTGCAGGTCGACTCTAGAGGATCCCCGGGTACCGAGCTCGAATTCGTAATCATGGTCATAG [YX011 80-nt ssDNA]”, the binding result is given as “binds”.

Regarding “CAGTGCCAAGCTTGCATGCCTGCAGGTCGACTCTAGAGGATCCCCGGGTACCGAGCTCGAATTCGTAATCATGGTCATAG (double strand) [YX011/YX012 80-bp dsDNA]”, the binding result is given as “binds”.

Values taken from paper doi:10.1101/2024.12.01.626218.
